Data as given in PMC11347159, “MUT-7 exoribonuclease activity and localization are mediated by an ancient domain” (Nucleic Acids Research, 2023).
No constants are given. Whether binding was seen depends on the method and setting. Where a sequence is shown, tags or fusion partners need not be part of it.

B1: MUT-7^FL/MUT-8^FL complex (complex, UniProt P34607 1-910; Q19672 1-578)
chain 1: MEEEPYKRKLTKAEKKAKYRTDYAEPLKSRREVLKAIMNGPESERERKVRAKNREFFNEDYRSGVNIYGMAVDMMKAMPDRGKTSGQSLAVWYLEDFGVWLKESGQETELRQKYLTGTIQINALDVCTIGQKQLLSEIFDITKEKFTEDITQLLDAAIKKQDFSVAADMAIQYNLLRDHHFEHLVLPLMLSGKDQTAYKLISNNERMQQQLVEFFDRMVGISVVAVEEMLKPYKETKIMTIPMEKLTGKTLDKLISTIINKNTHEYNFSRELSKFAKNHSQNGNLKALKFNISERYEKGKSDDNYFQHMVETFTKAEDVREPILFYLWSSNDTEKQIDAICFAIYLGIASSSSYQLPNVMRDFFRQPDSKLREAKELLVRRKTLQVPLNGEQLFVFENERRTQIHMVKTESEMNYLCSEIKSLSDEPAPVYVGFDSEWKPSNLTAVHDSKIAIIQLFFKNCVWLVDCVELEKANMADDWWQKFASRLFGDSPVKVVGFDMRNDLDAMATIPALKSSMKIEDTKNAFDLKRLAENVCDIDMEILELPKKTFKLADLTHYLLGLELDKTEQCSNWQCRPLRKKQIVYAALDAVVVVETFKKILSIVEEKNKDADIEKIVRESNVMAPKKDKGHKSYRKLKTIPWLELYDILRSHRNPTRSPQRPHDIKVIVDTMLIGFGKNLRRVGIDVILPKDVSDFRKYLKEIERVGGEHLRHIITVPSKSYEALKMDYDNYTIAIPELNNMSPVDQLIEFFDLFNVDIRPEDVYPRCTECNSRLQIKFPGPVLHFLHQYCVIHVQNVYRADMSEFPLEEWWNRMLHINPDDYDGVKVEMSRPSPTSKWIVATVPTGCLHITRQTALHTNLPDGIEVRIHKVPDDEFKRRNLSFYVCGECGTVACDGRGNQASESTSQEC
chain 2: MHNGYHSYFPPNHYYAQSQPSSSYNPQPQIQQPQTQIYGLVVGYNKYGNRNYLFYTKNIDGFVEISGNIQSLQIGRWLKLTVCQNFVGQYVLDSSNSCGYENWDVLPNHRNSSARFFPKYEANDEGEILITARFDVIVDRKNNLYDFTSYDISYDHIIDDFSLIKSSCQHYDGRSFIVEAQASLAGWVALSVHEDPQKLHTCDAVSRNGYQSLPNPVVDSDVQYLHDTRLLDIMTGNGYVQTPETDVQDQQSSQHQEDVHSQMNSQTSDSYNSSRVVSENREIPPETFRSQSIELNQVDSSLSQTTISSRAAPVIDSNQLSDEDEIDDEDTYGTRGTSNIPMRPFIKDLAPTMLQLLRQDKTDSEKPQSALCTVVQKIDGFAILYTAKRDVINVLLQERSCEGLERSPQLGDVAFFDILPRRIETKDRLIFKIPYTHIAVKKKPDTPDSLLKIDCFKNSVRCFGGVLEMKVKIALSKPELVVEQYHDNTEMNSDHHFYYLKATNGVLVTIPKERLLNHLNSKLSADFDLIAWVVHRKPIGNVSLHIGKGGEAYQQFTNGDIRELPPLSSNQYFMNVRK
B2: MUT-7^CTD/MUT-8^CTD complex (complex, UniProt P34607 633-910; Q19672 322-578)
chain 1: SYRKLKTIPWLELYDILRSHRNPTRSPQRPHDIKVIVDTMLIGFGKNLRRVGIDVILPKDVSDFRKYLKEIERVGGEHLRHIITVPSKSYEALKMDYDNYTIAIPELNNMSPVDQLIEFFDLFNVDIRPEDVYPRCTECNSRLQIKFPGPVLHFLHQYCVIHVQNVYRADMSEFPLEEWWNRMLHINPDDYDGVKVEMSRPSPTSKWIVATVPTGCLHITRQTALHTNLPDGIEVRIHKVPDDEFKRRNLSFYVCGECGTVACDGRGNQASESTSQEC
chain 2: DEDEIDDEDTYGTRGTSNIPMRPFIKDLAPTMLQLLRQDKTDSEKPQSALCTVVQKIDGFAILYTAKRDVINVLLQERSCEGLERSPQLGDVAFFDILPRRIETKDRLIFKIPYTHIAVKKKPDTPDSLLKIDCFKNSVRCFGGVLEMKVKIALSKPELVVEQYHDNTEMNSDHHFYYLKATNGVLVTIPKERLLNHLNSKLSADFDLIAWVVHRKPIGNVSLHIGKGGEAYQQFTNGDIRELPPLSSNQYFMNVRK

Tests used:
Assay in all cases: pull-down; purified proteins (5 μM) pre-incubated 30 min at 4°C in 20 mM HEPES/NaOH pH 7.5, 150 mM NaCl, 10% glycerol, 0.05% IGEPAL, 2 mM DTT; GST-tagged MUT-16 constructs held on glutathione resin; SDS-PAGE, Coomassie; both purified
[1] = biological target: T1, GST-tagged MUT-16^1–584 (Caenorhabditis elegans) (UniProt O62011)
T1 sequence: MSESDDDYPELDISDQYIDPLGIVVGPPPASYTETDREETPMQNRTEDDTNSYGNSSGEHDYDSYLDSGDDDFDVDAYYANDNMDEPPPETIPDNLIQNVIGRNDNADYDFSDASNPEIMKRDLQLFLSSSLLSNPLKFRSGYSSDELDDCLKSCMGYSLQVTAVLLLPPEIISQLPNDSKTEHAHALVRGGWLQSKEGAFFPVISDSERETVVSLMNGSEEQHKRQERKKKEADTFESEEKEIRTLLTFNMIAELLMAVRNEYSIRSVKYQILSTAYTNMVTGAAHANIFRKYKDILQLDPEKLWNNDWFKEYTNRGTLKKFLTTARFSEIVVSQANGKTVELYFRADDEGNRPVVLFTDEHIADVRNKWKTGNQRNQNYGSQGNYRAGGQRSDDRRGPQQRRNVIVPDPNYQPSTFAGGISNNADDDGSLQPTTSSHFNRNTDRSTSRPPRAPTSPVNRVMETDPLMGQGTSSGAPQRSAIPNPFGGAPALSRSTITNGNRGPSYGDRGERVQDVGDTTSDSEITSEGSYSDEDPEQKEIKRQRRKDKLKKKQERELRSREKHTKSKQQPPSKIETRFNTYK

[2] = biological target: T2, GST-tagged MUT-16^1–383 (Caenorhabditis elegans) (UniProt O62011)
T2 sequence: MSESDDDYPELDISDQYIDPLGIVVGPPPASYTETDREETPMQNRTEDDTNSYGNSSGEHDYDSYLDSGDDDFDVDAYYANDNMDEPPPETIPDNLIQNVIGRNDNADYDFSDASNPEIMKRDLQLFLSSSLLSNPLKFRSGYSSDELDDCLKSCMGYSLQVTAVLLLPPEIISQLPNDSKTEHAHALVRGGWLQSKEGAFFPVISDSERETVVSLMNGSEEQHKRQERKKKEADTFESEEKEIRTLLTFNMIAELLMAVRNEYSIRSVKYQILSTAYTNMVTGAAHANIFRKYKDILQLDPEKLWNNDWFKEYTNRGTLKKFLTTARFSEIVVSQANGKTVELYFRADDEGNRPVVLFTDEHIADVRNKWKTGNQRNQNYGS

[3] = biological target: T3, GST-tagged MUT-16^584–724 (Caenorhabditis elegans) (UniProt O62011)
T3 sequence: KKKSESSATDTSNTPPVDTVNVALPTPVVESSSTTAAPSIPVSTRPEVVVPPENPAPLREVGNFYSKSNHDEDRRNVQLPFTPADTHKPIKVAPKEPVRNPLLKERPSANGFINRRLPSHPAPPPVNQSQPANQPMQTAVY

Row | Binder | binding [1] | binding [2] | binding [3]
1 | B1 | no binding (tested: 5 μM) | no binding (tested: 5 μM) | 
2 | B2 |  |  | no binding (tested: 5 μM)
